# In the supplement of paper PMC10849652:
# Sequences of proteins named here, by UniProt entry; tags and fusion partners are left off. A change or cut given only in a name is not applied to a line headed by its entry.
# UniProt Q7L945: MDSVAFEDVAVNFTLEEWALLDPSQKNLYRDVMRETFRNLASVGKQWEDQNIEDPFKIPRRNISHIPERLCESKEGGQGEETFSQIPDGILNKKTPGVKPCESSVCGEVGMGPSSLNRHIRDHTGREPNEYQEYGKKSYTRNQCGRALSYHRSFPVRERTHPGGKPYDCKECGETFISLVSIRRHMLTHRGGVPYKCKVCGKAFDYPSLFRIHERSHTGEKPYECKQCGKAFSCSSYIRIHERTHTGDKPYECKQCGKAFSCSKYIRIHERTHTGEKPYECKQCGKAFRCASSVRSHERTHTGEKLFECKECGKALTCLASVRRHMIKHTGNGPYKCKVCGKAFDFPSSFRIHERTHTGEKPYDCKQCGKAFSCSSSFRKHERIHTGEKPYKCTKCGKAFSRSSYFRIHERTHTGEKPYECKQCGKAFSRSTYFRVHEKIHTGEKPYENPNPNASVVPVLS
# UniProt Q6V9R5: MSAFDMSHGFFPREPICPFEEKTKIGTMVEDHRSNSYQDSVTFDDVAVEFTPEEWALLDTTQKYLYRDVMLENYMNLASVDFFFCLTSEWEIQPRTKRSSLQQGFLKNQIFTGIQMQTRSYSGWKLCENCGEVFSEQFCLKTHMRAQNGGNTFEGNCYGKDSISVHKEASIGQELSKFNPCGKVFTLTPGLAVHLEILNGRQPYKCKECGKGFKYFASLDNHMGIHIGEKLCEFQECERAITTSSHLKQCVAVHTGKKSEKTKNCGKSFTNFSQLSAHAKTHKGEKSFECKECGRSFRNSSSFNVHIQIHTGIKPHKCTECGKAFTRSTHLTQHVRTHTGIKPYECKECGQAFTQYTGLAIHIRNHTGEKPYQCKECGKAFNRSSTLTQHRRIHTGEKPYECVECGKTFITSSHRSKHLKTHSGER
# UniProt Q96E35: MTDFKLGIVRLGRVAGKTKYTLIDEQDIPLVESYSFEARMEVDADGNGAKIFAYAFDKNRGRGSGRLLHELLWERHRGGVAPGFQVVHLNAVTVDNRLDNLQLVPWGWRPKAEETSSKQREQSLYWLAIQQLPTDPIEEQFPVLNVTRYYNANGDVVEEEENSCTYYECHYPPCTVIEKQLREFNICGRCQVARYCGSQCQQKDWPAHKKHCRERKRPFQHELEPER
# UniProt Q9HBT8: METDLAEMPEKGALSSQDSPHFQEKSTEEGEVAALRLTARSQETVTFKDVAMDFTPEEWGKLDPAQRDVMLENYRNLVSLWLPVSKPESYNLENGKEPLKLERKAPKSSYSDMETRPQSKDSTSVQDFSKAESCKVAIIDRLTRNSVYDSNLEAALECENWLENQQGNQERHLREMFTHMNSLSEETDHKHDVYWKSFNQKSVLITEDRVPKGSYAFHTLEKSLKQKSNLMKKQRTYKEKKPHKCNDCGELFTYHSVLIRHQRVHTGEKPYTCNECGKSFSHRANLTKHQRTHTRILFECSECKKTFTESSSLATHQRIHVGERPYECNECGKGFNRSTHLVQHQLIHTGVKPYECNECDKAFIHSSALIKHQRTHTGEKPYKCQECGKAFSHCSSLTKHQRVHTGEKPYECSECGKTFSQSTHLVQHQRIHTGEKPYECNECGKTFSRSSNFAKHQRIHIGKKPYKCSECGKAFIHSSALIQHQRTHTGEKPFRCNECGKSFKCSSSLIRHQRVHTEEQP
# UniProt P36508: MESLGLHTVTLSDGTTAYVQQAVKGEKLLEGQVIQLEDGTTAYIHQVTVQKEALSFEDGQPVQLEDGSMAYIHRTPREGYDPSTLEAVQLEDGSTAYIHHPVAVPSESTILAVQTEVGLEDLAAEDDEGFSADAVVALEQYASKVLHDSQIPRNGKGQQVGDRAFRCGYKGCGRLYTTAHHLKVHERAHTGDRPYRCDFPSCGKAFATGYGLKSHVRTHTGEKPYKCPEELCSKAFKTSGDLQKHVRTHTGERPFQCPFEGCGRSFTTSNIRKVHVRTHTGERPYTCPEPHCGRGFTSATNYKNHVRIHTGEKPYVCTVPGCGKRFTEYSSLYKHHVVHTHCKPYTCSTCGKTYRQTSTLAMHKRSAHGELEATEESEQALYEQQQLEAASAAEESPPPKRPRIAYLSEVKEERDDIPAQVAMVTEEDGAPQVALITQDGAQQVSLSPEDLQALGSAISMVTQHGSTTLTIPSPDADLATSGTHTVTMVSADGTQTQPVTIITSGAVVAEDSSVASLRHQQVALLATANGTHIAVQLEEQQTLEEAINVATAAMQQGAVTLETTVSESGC
# UniProt Q15935: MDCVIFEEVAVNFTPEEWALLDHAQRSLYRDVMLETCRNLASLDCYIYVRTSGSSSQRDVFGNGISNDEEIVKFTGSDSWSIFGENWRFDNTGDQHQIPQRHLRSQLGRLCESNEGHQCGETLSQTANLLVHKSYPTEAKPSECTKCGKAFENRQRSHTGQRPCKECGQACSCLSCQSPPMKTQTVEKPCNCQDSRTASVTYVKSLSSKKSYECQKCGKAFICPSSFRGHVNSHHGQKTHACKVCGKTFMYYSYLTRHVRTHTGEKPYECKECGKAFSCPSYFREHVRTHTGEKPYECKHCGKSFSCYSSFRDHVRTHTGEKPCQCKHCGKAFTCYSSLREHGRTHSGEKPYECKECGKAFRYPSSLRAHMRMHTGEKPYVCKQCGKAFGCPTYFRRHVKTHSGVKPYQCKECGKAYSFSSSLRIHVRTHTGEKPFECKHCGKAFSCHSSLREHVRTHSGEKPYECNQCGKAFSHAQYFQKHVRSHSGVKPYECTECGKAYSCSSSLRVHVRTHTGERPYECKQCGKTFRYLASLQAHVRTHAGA
# UniProt Q9BS34: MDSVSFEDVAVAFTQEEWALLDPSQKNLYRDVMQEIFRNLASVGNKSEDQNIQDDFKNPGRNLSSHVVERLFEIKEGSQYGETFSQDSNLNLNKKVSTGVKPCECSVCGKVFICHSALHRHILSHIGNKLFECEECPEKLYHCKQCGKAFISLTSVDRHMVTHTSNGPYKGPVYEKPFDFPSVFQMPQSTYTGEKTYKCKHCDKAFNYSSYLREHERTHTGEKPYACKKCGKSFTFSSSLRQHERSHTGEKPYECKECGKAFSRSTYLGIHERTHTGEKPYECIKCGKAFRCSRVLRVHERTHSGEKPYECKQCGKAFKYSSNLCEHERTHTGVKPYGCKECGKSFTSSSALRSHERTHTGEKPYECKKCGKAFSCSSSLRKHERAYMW
# UniProt Q96IQ9: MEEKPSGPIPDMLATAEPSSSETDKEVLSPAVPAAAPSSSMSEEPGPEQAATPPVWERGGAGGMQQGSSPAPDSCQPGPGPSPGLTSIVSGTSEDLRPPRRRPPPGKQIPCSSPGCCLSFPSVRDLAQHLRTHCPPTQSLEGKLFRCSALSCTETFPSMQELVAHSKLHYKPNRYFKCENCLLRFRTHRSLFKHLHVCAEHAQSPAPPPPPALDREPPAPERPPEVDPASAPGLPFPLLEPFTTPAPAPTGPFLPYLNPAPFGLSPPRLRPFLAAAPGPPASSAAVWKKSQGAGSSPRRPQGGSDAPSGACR
# UniProt P17020: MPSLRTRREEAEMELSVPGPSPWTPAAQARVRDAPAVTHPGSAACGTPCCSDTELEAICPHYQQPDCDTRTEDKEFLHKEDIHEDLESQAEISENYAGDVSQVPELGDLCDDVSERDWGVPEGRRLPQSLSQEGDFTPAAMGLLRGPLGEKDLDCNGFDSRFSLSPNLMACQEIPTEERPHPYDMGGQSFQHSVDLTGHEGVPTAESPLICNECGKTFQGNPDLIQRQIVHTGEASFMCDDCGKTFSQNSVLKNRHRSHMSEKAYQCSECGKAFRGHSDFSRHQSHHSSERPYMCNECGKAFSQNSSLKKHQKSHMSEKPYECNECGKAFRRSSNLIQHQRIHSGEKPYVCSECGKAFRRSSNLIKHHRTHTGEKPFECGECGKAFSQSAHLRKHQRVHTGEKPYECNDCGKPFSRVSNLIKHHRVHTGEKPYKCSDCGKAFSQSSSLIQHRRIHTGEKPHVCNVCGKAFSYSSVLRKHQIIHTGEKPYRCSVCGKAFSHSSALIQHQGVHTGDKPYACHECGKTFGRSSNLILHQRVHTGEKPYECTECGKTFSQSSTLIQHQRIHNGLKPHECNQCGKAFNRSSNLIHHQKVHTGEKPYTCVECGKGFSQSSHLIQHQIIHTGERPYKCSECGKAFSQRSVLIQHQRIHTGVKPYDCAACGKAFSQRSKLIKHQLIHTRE
# UniProt Q16670: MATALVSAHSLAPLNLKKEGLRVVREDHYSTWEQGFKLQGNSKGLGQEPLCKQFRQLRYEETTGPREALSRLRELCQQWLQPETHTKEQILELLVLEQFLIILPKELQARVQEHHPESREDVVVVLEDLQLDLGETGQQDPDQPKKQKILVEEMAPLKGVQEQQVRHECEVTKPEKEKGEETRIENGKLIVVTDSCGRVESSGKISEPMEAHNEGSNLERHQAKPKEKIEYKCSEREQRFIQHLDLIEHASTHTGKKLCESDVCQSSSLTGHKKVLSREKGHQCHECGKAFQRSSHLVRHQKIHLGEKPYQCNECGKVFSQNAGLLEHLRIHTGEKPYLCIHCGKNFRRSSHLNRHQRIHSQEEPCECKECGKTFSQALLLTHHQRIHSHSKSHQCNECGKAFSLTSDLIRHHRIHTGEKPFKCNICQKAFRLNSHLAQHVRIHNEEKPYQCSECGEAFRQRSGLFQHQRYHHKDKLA
# UniProt O15015: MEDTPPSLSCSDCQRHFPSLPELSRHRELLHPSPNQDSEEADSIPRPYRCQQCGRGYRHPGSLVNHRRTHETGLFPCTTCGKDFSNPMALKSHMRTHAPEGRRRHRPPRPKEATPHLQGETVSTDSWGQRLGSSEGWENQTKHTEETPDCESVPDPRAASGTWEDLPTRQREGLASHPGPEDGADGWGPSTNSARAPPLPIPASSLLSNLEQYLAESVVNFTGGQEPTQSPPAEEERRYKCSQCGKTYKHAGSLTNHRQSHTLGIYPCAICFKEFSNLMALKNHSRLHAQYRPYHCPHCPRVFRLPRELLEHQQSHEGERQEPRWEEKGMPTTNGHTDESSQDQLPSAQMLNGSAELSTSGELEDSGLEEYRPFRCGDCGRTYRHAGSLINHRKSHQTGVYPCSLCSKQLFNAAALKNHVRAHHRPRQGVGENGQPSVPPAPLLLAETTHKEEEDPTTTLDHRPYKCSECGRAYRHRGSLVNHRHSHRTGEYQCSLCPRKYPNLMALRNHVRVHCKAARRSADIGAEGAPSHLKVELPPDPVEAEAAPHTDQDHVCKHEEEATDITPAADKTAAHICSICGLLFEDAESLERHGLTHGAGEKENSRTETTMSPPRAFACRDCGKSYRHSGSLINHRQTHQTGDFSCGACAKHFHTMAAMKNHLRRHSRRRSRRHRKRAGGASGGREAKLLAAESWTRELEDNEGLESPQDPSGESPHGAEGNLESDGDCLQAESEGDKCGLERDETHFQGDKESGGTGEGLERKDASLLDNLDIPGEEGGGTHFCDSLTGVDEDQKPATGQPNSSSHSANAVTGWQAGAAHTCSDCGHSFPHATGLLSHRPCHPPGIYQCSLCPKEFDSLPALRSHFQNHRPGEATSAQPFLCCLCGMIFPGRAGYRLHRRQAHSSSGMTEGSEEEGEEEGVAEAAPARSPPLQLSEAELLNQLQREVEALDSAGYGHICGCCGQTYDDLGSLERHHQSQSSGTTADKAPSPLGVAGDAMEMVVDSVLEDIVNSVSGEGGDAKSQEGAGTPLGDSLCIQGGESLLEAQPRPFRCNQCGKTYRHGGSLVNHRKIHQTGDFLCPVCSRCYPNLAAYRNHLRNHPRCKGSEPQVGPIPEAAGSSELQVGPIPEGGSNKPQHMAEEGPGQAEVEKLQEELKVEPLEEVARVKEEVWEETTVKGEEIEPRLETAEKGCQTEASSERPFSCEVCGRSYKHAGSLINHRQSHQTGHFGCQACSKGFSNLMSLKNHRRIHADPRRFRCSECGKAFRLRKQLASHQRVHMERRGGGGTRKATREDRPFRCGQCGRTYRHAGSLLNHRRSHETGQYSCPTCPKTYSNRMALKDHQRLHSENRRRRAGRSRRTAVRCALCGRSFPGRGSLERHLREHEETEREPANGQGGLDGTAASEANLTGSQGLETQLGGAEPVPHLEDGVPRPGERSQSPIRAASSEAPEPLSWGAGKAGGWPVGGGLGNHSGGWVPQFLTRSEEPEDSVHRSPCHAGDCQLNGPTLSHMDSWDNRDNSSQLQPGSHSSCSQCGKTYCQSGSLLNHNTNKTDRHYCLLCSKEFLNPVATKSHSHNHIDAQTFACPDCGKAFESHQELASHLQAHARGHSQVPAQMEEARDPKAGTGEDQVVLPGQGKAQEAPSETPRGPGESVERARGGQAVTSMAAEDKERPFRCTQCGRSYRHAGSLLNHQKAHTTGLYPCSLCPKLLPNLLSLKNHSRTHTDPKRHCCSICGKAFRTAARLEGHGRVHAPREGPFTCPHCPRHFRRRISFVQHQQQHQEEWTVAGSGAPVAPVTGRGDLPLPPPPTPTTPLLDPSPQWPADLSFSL
# This is one part of the list.
# Key:
# Assay in all cases: log2 fold change, soluble protein after heating vs DMSO (PISA); higher = thermal stabilisation; K562 lysate, 10 uM; active = over 0.2 and 3.5 SD of the protein, either way, in both replicates (recomputed)
# [1] = compound: CS(=O)(=O)N1CCN(Cc2cc3nc(-c4cccc5[nH]ncc45)nc(N4CCOCC4)c3s2)CC1 [pictilisib]
# How it was run: (§1)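 Values give the log-two fold change in thermal stability against solvent controls, from duplicates. Crude K562 extract at 1 mg/mL protein, made by dounce homogenisation in PBS pH 7.4 with 1 mM MgCl2, was treated with 10 μM compound for 30 min. After 3 min heating across 48°C-58°C, aliquots were pooled, adjusted to 0.5% NP-40 at 4°C and centrifuged at 21,000xg for 90 min. The supernatant was measured by TMTpro 16plex LC-MS/MS with channel sums equalised.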
# [2] = compound: C[C@@H](Oc1cc(-c2cnn(C3CCNCC3)c2)cnc1N)c1c(Cl)ccc(F)c1Cl [crizotinib]
# How it was run: as §1
# [3] = compound: C[C@H](C1=CC=C(C=C1)C(=O)NC2=C3C=CNC3=NC=C2)N
# How it was run: as §1
# [4] = compound: Cc1cc(Nc2cc(CN3CCOCC3)c3nc(C)c(Cc4ccc(Cl)cc4F)n3n2)n[nH]1 [gandotinib]
# How it was run: as §1
# [5] = compound: Cc1ccc(-n2nc(C(C)(C)C)cc2NC(=O)Nc2ccc(OCCN3CCOCC3)c3ccccc23)cc1 [doramapimod]
# How it was run: as §1
# [6] = compound: Cc1ccc(NC(=O)c2ccc(CN3CC[C@H](N(C)C)C3)c(C(F)(F)F)c2)cc1Nc1nccc(-c2cncnc2)n1 [bafetinib]
# How it was run: as §1
# [7] = compound: Cc1cccc(CC(=O)N2CCc3c2ccc(-c2cn(C)c4ncnc(N)c24)c3F)n1
# How it was run: as §1
# [8] = compound: C[C@H](Nc1ncnc2nc[nH]c12)c1cc2cccc(Cl)c2c(=O)n1-c1ccccc1 [duvelisib]
# How it was run: as §1
# [9] = compound: Cc1cc(Nc2cc(N3CCN(C)CC3)nc(Sc3ccc(NC(=O)C4CC4)cc3)n2)n[nH]1 [tozasertib]
# How it was run: as §1
target,measurement,setting,value
ZNF627 (UniProt Q7L945),log2 fold change,[1],inactive: -0.019
same,log2 fold change,[2],inactive: 0.128
same,log2 fold change,[3],inactive: -0.001
same,log2 fold change,[4],inactive: 0.023
same,log2 fold change,[5],inactive: 0.119
same,log2 fold change,[6],inactive: 0.008
same,log2 fold change,[7],inactive: -0.054
ZNF562 (UniProt Q6V9R5),log2 fold change,[8],inactive: -0.004
ZNF595 (UniProt Q8IYB9),log2 fold change,[2],inactive: 0.046
same,log2 fold change,[3],inactive: -0.146
same,log2 fold change,[4],inactive: 0.112
same,log2 fold change,[9],inactive: 0.029
same,log2 fold change,[5],inactive: 0.09
same,log2 fold change,[7],inactive: 0.215
ZMYND19 (UniProt Q96E35),log2 fold change,[2],inactive: 0.049
same,log2 fold change,[5],inactive: -0.081
ZNF692 isoform 5 (UniProt Q9BU19),log2 fold change,[8],inactive: 0.116
ZNF286A (UniProt Q9HBT8),log2 fold change,[3],inactive: -0.004
same,log2 fold change,[4],inactive: 0.002
same,log2 fold change,[7],inactive: -0.107
ZNF76 (UniProt P36508),log2 fold change,[2],inactive: 0.071
same,log2 fold change,[5],inactive: -0.028
ZNF77 (UniProt Q15935),log2 fold change,[9],inactive: -0.223
ZNF670 (UniProt Q9BS34),log2 fold change,[3],inactive: -0.03
same,log2 fold change,[4],inactive: 0.018
same,log2 fold change,[7],inactive: 0.031
ZNF391 (UniProt Q9UJN7),log2 fold change,[9],inactive: -0.088
ZNF414 isoform 2 (UniProt Q96IQ9),log2 fold change,[2],inactive: 0.075
same,log2 fold change,[3],inactive: -0.036
same,log2 fold change,[4],inactive: 0.07
same,log2 fold change,[9],inactive: 0.44
same,log2 fold change,[5],inactive: 0.068
same,log2 fold change,[7],inactive: 0.175
ZNF16 (UniProt P17020),log2 fold change,[2],inactive: 0.014
same,log2 fold change,[5],inactive: -0.011
"ZNF280A, A0A0G2JN84",log2 fold change,[2],inactive: -0.049
same,log2 fold change,[5],inactive: 0.241
ZSCAN26 (UniProt Q16670),log2 fold change,[2],inactive: -0.025
same,log2 fold change,[5],inactive: 0.102
ZNF646 (UniProt O15015),log2 fold change,[2],inactive: 0.007
same,log2 fold change,[5],inactive: 0.027
ZNF652 (UniProt Q9Y2D9),log2 fold change,[2],inactive: -0.007
same,log2 fold change,[5],inactive: 0

# Some of the entries so far, with tabs.
target	measurement	setting	value
ZNF627 (UniProt Q7L945)	log2 fold change	[7]	inactive: -0.054
ZNF286A (UniProt Q9HBT8)	log2 fold change	[7]	inactive: -0.107
ZNF646 (UniProt O15015)	log2 fold change	[5]	inactive: 0.027
